Source: PubChem BioAssay AID686938 (Drosophila RNAi Screening Center, 2013)
In all, the deposit lists about 23,000 reagents; this is a random part of those that have a named target and a result. In the full data, 75 (0.33%) are marked active. 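Raw plate signals without normalisation; calls rest on plate z-scores that were not deposited; ratio present for only 364 wells.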 A plus sign joins genes that one reagent is predicted to hit. Not stated in the record: the dose of the treatment.

Aim: 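Knock-downs reducing store-operated calcium influx in Drosophila cells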 (primary screen)
Cell system: Drosophila S2R+ cells
Reagents: long dsRNA against Drosophila genes, about 0.25 µg dsRNA per well, roughly 10,000 cells
Duration: 5 days of knock-down before the calcium assay
Challenge: thapsigargin (SERCA pump blocker) to empty calcium stores; entry signal taken 4 min after adding it
Measurement: 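Duplicate raw fluo-4 intensities per well from a plate reader, at rest and four minutes after thapsigargin emptied calcium stores; entry-to-rest ratio filled for only some wells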
Reading the numbers: calcium entry signal: higher = stronger calcium signal after store depletion; entry to resting ratio: higher = more calcium entry relative to resting level; resting calcium signal: higher = higher resting calcium signal
Active means: 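Called when the plate z-score of the entry-to-rest ratio, mean of duplicates, falls below −3; wells with low overall dye signal (Fmax z below −2) or more than five off-targets excluded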
Meaning of the calls: active = strongly reduced calcium entry; inactive = no strong reduction

CG12093 [DRSC08252] showed calcium entry signal, replicate 1 (fluorescence units) = 4.14e7; calcium entry signal, replicate 2 (fluorescence units) = 3.33e7; resting calcium signal, replicate 1 (fluorescence units) = 2.04e7; resting calcium signal, replicate 2 (fluorescence units) = 1.75e7; inactive. Against CG11263 [DRSC09832], the values are calcium entry signal, replicate 1 (fluorescence units) = 2.61e7; calcium entry signal, replicate 2 (fluorescence units) = 3.84e7; resting calcium signal, replicate 1 (fluorescence units) = 1.36e7; resting calcium signal, replicate 2 (fluorescence units) = 1.65e7; inactive. CG14780 [DRSC18566] showed calcium entry signal, replicate 1 (fluorescence units) = 4.59e7; calcium entry signal, replicate 2 (fluorescence units) = 4.43e7; entry to resting ratio 2.1; resting calcium signal, replicate 1 (fluorescence units) = 2.23e7; resting calcium signal, replicate 2 (fluorescence units) = 1.86e7; inactive. Knock-down of Klp67A (Kinesin-like protein at 67A) [DRSC11205] gave: calcium entry signal, replicate 1 (fluorescence units) = 1.20e7; calcium entry signal, replicate 2 (fluorescence units) = 2.18e7; resting calcium signal, replicate 1 (fluorescence units) = 7.01e6; resting calcium signal, replicate 2 (fluorescence units) = 1.06e7; inactive. Silencing of Ndfip (Nedd4 family interacting protein) [DRSC11201] resulted in: calcium entry signal, replicate 1 (fluorescence units) = 4.52e7; calcium entry signal, replicate 2 (fluorescence units) = 4.67e7; resting calcium signal, replicate 1 (fluorescence units) = 1.96e7; resting calcium signal, replicate 2 (fluorescence units) = 3.24e7; inactive. With knock-down of CheA7a (Chemosensory protein A 7a) [DRSC17965] the results were calcium entry signal, replicate 1 (fluorescence units) = 3.43e7; calcium entry signal, replicate 2 (fluorescence units) = 3.55e7; resting calcium signal, replicate 1 (fluorescence units) = 1.71e7; resting calcium signal, replicate 2 (fluorescence units) = 1.65e7; inactive.

Knock-down of PGRP-SB1 (Peptidoglycan recognition protein SB1) [DRSC11090] came out at: calcium entry signal, replicate 1 (fluorescence units) = 3.85e7; calcium entry signal, replicate 2 (fluorescence units) = 6.77e7; resting calcium signal, replicate 1 (fluorescence units) = 2.01e7; resting calcium signal, replicate 2 (fluorescence units) = 2.68e7; inactive. Against CG34461 [DRSC10767], the entry reads calcium entry signal, replicate 1 (fluorescence units) = 2.01e7; calcium entry signal, replicate 2 (fluorescence units) = 3.63e7; resting calcium signal, replicate 1 (fluorescence units) = 9.64e6; resting calcium signal, replicate 2 (fluorescence units) = 1.35e7; inactive. CG4239 [DRSC19885] showed calcium entry signal, replicate 1 (fluorescence units) = 3.85e7; calcium entry signal, replicate 2 (fluorescence units) = 4.08e7; resting calcium signal, replicate 1 (fluorescence units) = 1.78e7; resting calcium signal, replicate 2 (fluorescence units) = 2.05e7; inactive.

In a second layout: entries from further up
| predicted target | amplicon | calcium entry signal, replicate 1 (fluorescence units) | calcium entry signal, replicate 2 (fluorescence units) | entry to resting ratio | resting calcium signal, replicate 1 (fluorescence units) | resting calcium signal, replicate 2 (fluorescence units) | Outcome |
| --- | --- | --- | --- | --- | --- | --- | --- |
| CG34461 | DRSC10767 | 2.01e7 | 3.63e7 | – | 9.64e6 | 1.35e7 | inactive |
| CG4239 | DRSC19885 | 3.85e7 | 4.08e7 | – | 1.78e7 | 2.05e7 | inactive |

More entries:
Knock-down of l(1)G0289 (lethal (1) G0289) [DRSC18215] resulted in: calcium entry signal, replicate 1 (fluorescence units) = 4.07e7; calcium entry signal, replicate 2 (fluorescence units) = 3.91e7; resting calcium signal, replicate 1 (fluorescence units) = 1.92e7; resting calcium signal, replicate 2 (fluorescence units) = 1.85e7; inactive. DNAlig1 (DNA ligase 1) [DRSC04518] showed calcium entry signal, replicate 1 (fluorescence units) = 2.96e7; resting calcium signal, replicate 1 (fluorescence units) = 1.53e7; inactive. For MED26 (Mediator complex subunit 26) [DRSC17126] the deposit lists calcium entry signal, replicate 1 (fluorescence units) = 3.89e7; calcium entry signal, replicate 2 (fluorescence units) = 3.45e7; resting calcium signal, replicate 1 (fluorescence units) = 1.74e7; resting calcium signal, replicate 2 (fluorescence units) = 1.42e7; inactive. MED26 (Mediator complex subunit 26) [DRSC17147] scored calcium entry signal, replicate 1 (fluorescence units) = 3.33e7; calcium entry signal, replicate 2 (fluorescence units) = 4.14e7; entry to resting ratio 2; resting calcium signal, replicate 1 (fluorescence units) = 1.64e7; resting calcium signal, replicate 2 (fluorescence units) = 1.93e7; inactive. Silencing of MED26 (Mediator complex subunit 26) [DRSC17148] gave: calcium entry signal, replicate 1 (fluorescence units) = 2.78e7; calcium entry signal, replicate 2 (fluorescence units) = 2.92e7; resting calcium signal, replicate 1 (fluorescence units) = 1.46e7; resting calcium signal, replicate 2 (fluorescence units) = 1.57e7; inactive. With knock-down of Atg18b (Autophagy-related 18b) [DRSC03108], the screen gave calcium entry signal, replicate 1 (fluorescence units) = 3.74e7; resting calcium signal, replicate 1 (fluorescence units) = 1.94e7; inactive.

After knock-down of CG5597 [DRSC04517], the screen gave calcium entry signal, replicate 1 (fluorescence units) = 3.85e7; resting calcium signal, replicate 1 (fluorescence units) = 1.79e7; inactive. Knock-down of SerT (Serotonin transporter) [DRSC04655] came out at: calcium entry signal, replicate 1 (fluorescence units) = 4.73e7; calcium entry signal, replicate 2 (fluorescence units) = 5.56e7; resting calcium signal, replicate 1 (fluorescence units) = 2.51e7; resting calcium signal, replicate 2 (fluorescence units) = 2.62e7; inactive. Knock-down of dsx-c73A (doublesex cognate 73A) [DRSC09435] gave: calcium entry signal, replicate 1 (fluorescence units) = 4.73e7; calcium entry signal, replicate 2 (fluorescence units) = 4.17e7; resting calcium signal, replicate 1 (fluorescence units) = 2.06e7; resting calcium signal, replicate 2 (fluorescence units) = 2.18e7; inactive. dsx-c73A (doublesex cognate 73A) [DRSC09914] scored calcium entry signal, replicate 1 (fluorescence units) = 3.73e7; calcium entry signal, replicate 2 (fluorescence units) = 5.02e7; resting calcium signal, replicate 1 (fluorescence units) = 1.93e7; resting calcium signal, replicate 2 (fluorescence units) = 1.99e7; inactive. Against dsx-c73A (doublesex cognate 73A) [DRSC10429], the entry reads calcium entry signal, replicate 1 (fluorescence units) = 3.87e7; calcium entry signal, replicate 2 (fluorescence units) = 5.47e7; resting calcium signal, replicate 1 (fluorescence units) = 1.85e7; resting calcium signal, replicate 2 (fluorescence units) = 2.12e7; inactive. Gyc76C + CG42637 [DRSC11180] gave calcium entry signal, replicate 1 (fluorescence units) = 3.21e7; calcium entry signal, replicate 2 (fluorescence units) = 4.04e7; resting calcium signal, replicate 1 (fluorescence units) = 1.47e7; resting calcium signal, replicate 2 (fluorescence units) = 2.48e7; inactive.
